In article PMC13144348:
Substitutions are numbered along the chain they refer to. Names may count otherwise. These are yes or no findings as the source states them, for the method shown. Binding calls can cover weak binding; strength is not graded here. For some assays here: Sequences can lack the tags named with a protein. For some assays here: In cells and extracts the contact can be indirect. Values belong to the molecule of their own block, whether it stands above or below them.

Columns and labels:
[1] = molecular target: T1, Pil1-Ste4-mCherry (S. pombe) (UniProt P36622); experiment: Pil1 co-recruitment assay (microscopy); mCherry-tagged bait fused to Pil1 to target it to eisosomes; recruitment of the GFP-tagged prey assessed by microscopy in vegetative cells in MSL+N; Pearson correlation coefficient
T1 sequence: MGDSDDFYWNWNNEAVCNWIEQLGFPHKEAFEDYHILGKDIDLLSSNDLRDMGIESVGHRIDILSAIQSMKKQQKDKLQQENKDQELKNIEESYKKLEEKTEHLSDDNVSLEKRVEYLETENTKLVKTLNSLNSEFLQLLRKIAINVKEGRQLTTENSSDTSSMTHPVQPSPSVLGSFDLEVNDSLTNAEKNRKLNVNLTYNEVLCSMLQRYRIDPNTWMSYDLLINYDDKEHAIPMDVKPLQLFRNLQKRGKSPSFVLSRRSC

[2] = molecular target: Pil1-Ste4^ΔRA-mCherry (S. pombe); experiment: as above
[3] = molecular target: Sms1-sfGFP (full-length, nmt41 promoter) (S. pombe); experiment: co-IP; anti-GFP beads; lysates (whole cell extracts) of vegetative cells expressing both proteins under the nmt41 promoter; lysis in LBi + 1% LMNG + 0.1% CHS, 3 h at 4 °C, washes with LBi + 1% NP-40
[4] = molecular target: Sms1-sfGFP (full-length, nmt41 promoter) (S. pombe); experiment: co-IP; anti-GFP beads; membrane fractions of vegetative cells (ste11Δ for Byr1^DD) expressing both proteins under the nmt41 promoter; membranes resuspended in LBi + 1% LMNG + 0.1% CHS
[5] = molecular target: Sms1 arrestin domain-sfGFP (S. pombe); experiment: as above

B3: Gpa1-3xFLAG-mCherry (protein, UniProt P27584 1-407)
chain: MGCMSSKYADTSGGEVIQKKLSDTQTSNSSTTGSQNARVPVLENWLNIVLRGKPQNVESSGVRVKGNSTSGGNDIKVLLLGAGDSGKTTIMKQMRLLYSPGFSQVVRKQYRVMIFENIISSLCLLLEAMDNSNVSLLPENEKYRAVILRKHTSQPNEPFSPEIYEAVHALTLDTKLRTVQSCGTNLSLLDNFYYYQDHIDRIFDPQYIPSDQDILHCRIKTTGISEETFLLNRHHYRFFDVGGQRSERRKWIHCFENVTALLFLVSLAGYDQCLVEDNSGNQMQEALLLWDSICNSSWFSESAMILFLNKLDLFKRKVHISPIQKHFPDYQEVGSTPTFVQTQCPLADNAVRSGMYYFYLKFESLNRIASRSCYCHFTTATDTSLLQRVMVSVQDTIMSNNLQSLMF
binding [4]: binds | binding [5]: binds

B4: Gpa1^Q244L-3xFLAG-mCherry (protein, UniProt P27584 1-407)
chain: B3 chain with Q244L
binding [4]: binds

B5: Gpa1^G242A-3xFLAG-mCherry (protein, UniProt P27584 1-407)
chain: B3 chain with G242A
binding [4]: binds

The next lines start with the values.

binding [1]: binds
Molecule: Sms1-sfGFP (full-length, nmt41 promoter) (S. pombe)

binding [1]: no binding
Molecule: Sms1^ΔSBD-sfGFP (S. pombe)

binding [2]: binds
B1: MAP3K^Byr2, GFP-tagged (co-recruitment prey) (protein, UniProt P28829 1-659)
chain: MEYYTSKEVAEWLKSIGLEKYIEQFSQNNIEGRHLNHLTLPLLKDLGIENTAKGKQFLKQRDYLREFPRPCILRFIACNGQTRAVQSRGDYQKTLAIALKKFSLEDASKFIVCVSQSSRIKLITEEEFKQICFNSSSPERDRLIIVPKEKPCPSFEDLRRSWEIELAQPAALSSQSSLSPKLSSVLPTSTQKRSVRSNNAKPFESYQRPPSELINSRISDFFPDHQPKLLEKTISNSLRRNLSIRTSQGHNLGNFGQEILPRSSRRARPSELVCPLSSLRISVAEDVNRLPRIDRGFDPPLTVSSTQRISRPPSLQKSITMVGVEPLYQSNGNEKSSKYNVFSESAHGNHQVLSFSPGSSPSFIEQPSPISPTSTTSEDTNTLEEDTDDQSIKWIRGALIGSGSFGQVYLGMNASSGELMAVKQVILDSVSESKDRHAKLLDALAGEIALLQELSHEHIVQYLGSNLNSDHLNIFLEYVPGGSVAGLLTMYGSFEETLVKNFIKQTLKGLEYLHSRGIVHRDIKGANILVDNKGKIKISDFGISKKLELNSTSTKTGGARPSFQGSSFWMAPEVVKQTMHTEKTDIWSLGCLVIEMLTSKHPYPNCDQMQAIFRIGENILPEFPSNISSSAIDFLEKTFAIDCNLRPTASELLSHPFVS

binding [3]: binds
B2: Ste4-3xFLAG-mCherry (protein, UniProt P36622 1-264)
chain: T1 sequence
